Laboratory results published in PubChem BioAssay AID652054 (National Center for Advancing Translational Sciences (NCATS), 2013).
Where “and” joins values, the source holds several entries; their conditions need not be identical. Equal values may be shown once. About 9,100 (2.5%) of roughly 360,000 compounds were called active. This list was built around the results that the source calls inconclusive (neither active nor inactive); the mix of calls is not that of the screen. Rule as the data show it: active = max response below about -50%; inconclusive = no clear call, values can overlap the other calls; inactive = above that.

Amino acid sequences for entries named in this document (tags omitted).
UniProt P35462, whole entry, looked up: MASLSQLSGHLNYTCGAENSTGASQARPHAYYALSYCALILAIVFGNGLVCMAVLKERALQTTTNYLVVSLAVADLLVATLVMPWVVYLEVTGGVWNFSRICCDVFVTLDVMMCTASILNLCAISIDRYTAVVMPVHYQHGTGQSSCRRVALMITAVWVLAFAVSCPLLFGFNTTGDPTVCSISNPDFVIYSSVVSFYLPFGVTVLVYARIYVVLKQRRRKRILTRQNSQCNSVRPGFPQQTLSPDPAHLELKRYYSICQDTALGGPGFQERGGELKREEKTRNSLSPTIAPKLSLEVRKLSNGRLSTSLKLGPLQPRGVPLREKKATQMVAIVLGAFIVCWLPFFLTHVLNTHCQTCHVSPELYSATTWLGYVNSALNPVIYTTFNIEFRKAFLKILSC

target: D(3) dopamine receptor (Homo sapiens) (UniProt P35462); test: qHTS of D3 Dopamine Receptor Antagonist: qHTS; settings: D3R cells, DiscoveRx beta-arrestin luminescence, antagonist mode; hits give low values
How it was run: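 Cells plated overnight at 1500 cells/well, then exposed to library compounds with dopamine controls for 90 minutes at 37 degrees C. DiscoveRx reagent added for 30–60 minutes at room temperature; luminescence read, quantitative HTS format.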
% is scaled to controls: 0 for no effect and ±100 for the full control effect.

Structure (SMILES)	max response, negative = inhibition
Cc1ccc(-n2nc(C)c(NC(=O)CCl)c2C)cc1C	inactive: -8.25%
CCN(CC)S(=O)(=O)c1ccc(N2CCCC2)c(C(=O)Nc2ccc(OC)c(Cl)c2)c1	inconclusive: -40.6%
Cc1ccc(C(=O)N/C(=C\c2ccc(-c3ccc(Br)cc3)o2)C(=O)NCCCN(C)C)cc1	inconclusive: -38.4%
CCCCN(C)S(=O)(=O)c1ccc(C(=O)N=c2sc3cc(NC(C)=O)ccc3n2C)cc1	inconclusive: -33.7%
CCOc1ccc(/C=C/C(=O)N(CC)CC(=O)Nc2ccc3c(c2)OCCO3)cc1OCC	active: -56.6%
N#Cc1cn(-c2ccccc2)nc1C(=O)c1ccccc1	inconclusive: -37%
CCc1nc(SCC(=O)Nc2nc3c(s2)CCCC3)c2ccccc2n1	inactive: -1.84%
CN(Cc1ccccc1)Cc1ccccc1F	active: -76.7%
O=C(N1CCOCC1)N1CCOCC1	active: -50.3%
CCCCN(C(=O)C1CC(=O)N(Cc2ccc(C)cc2)C1)c1c(N)n(CCCC)c(=O)[nH]c1=O (centres undefined)	inactive: 13%
COc1ccc(CCNC(C)=O)cc1	inconclusive: -35.7%
CC(NC(=O)NC(=O)c1ccc(Cl)cc1)c1ccccc1 (centres undefined)	inconclusive: -35.4%
COc1ccc(C(C(=O)NC2CCCC2)N2CCc3ccccc32)cc1 (centres undefined)	inconclusive: -41.2%
Cc1ccc(Cn2nnnc2CN2CCC(O)(c3ccccc3F)CC2)cc1	inconclusive: -31.7%
COc1ccc(C(=O)c2ccc(Cl)cc2)c(OC)c1OC	inactive: -1.09%
CC(CN(C)Cc1ccccc1)OC(=O)c1ccc2c(c1)OCCO2 (centres undefined)	active: -77.1%
CN(C(=O)CSC1=Nc2ccccc2C2=NC(c3ccccc3)C(=O)N12)C1CCCCC1 (centres undefined)	active: -55.2%
CN1CCN(c2ccc([N+](=O)[O-])c(-n3nc(-c4ccccc4)c4ccccc4c3=O)c2)CC1	active: -53%
CCn1cc(CCCC(=O)NCc2ccccc2OC)c2ccccc21	inconclusive: -31.1%
O=c1c(-c2ccccc2)[n+]([O-])c2ccccc2n1O	inconclusive: -39.2%
COc1ccc(C)cc1NC(=O)c1nnn(Cc2cccc(C(F)(F)F)c2)c1N	inactive: -26.6%
CCn1c(=O)c([N+](=O)[O-])c(NCCN(C)C)c2ccccc21	active: -58.5%
CCOC(=O)C(/C=C(\C#N)C(=O)OCC)=C(/N)N1CCN(c2ccc(Cl)cc2)CC1	inconclusive: -42.2%

Structure (SMILES)	max response, negative = inhibition
Cc1ccc(C)c(NC(=O)C[n+]2ccccc2)c1	inconclusive: -38.4%
CCOc1ccccc1C(=O)Nc1ccccc1C(N)=O	inactive: -9.45%
COc1ccc(NC(=O)C2(C)Cc3c(-c4cccc(NC(C)=O)c4)ccnc3O2)cc1 (centres undefined)	inconclusive: -30.1%
Cc1ccc(-c2c[n+](CC(=O)Nc3ccccc3)c3n2CCC3)cc1	active: -65.6%
COc1cc(C(=O)NC(=S)Nc2ccc(NC(=O)c3ccco3)cc2)cc(OC)c1OC	inconclusive: -36%
O=S(=O)(c1ccc(NC(=S)N/N=C/c2ccc(Oc3ccccc3)cc2)cc1)N1CCOCC1	inconclusive: -35.3%
O=C(/C=C\NCC(=O)c1ccccc1)c1ccccc1	inconclusive: -43.8%
Cn1cc(CC(=O)NCCCN2CCCC2)c2ccccc21	inconclusive: -39.8%
COc1ccccc1C(=O)Nc1ccnn1C1CCN(C/C=C/c2ccccc2)CC1	inconclusive: -34.3%
Cn1c(=O)c2c(nc(SCCCC#N)n2Cc2ccccc2F)n(C)c1=O	inconclusive: -41.1%
O=C1CCCc2c1[nH]c1ccc(Cl)cc21	inconclusive: -44.8%
Cc1nnc(Nc2ccc3c(c2)ncn3C)c2ccccc12	inconclusive: -34.8%
Cc1cc(C2=CC(=O)C[C@H](c3ccc4c(c3)OCO4)C2)ccc1F	inconclusive: -43.6%
CCCCOC(=O)CCc1n[nH]c(=O)[nH]c1=O	inconclusive: -42.1%
CCOC(=O)C1CCN(C(=O)COc2ccc(S(=O)(=O)NC(C)C)cc2Cl)CC1	inconclusive: -32.6%
O=C(Nc1cccc2cccnc12)c1csc([C@@H]2O[C@H](CO)[C@H](O)[C@H](O)[C@H]2O)n1	active: -117%
CCc1c(C2(O)CCCCC2)[nH]c2ccc(C#N)cc12	inconclusive: -30.6%
COc1ccccc1N1CCN(CCCCCCOc2ccc(F)cc2)CC1	active: -52.1%
CN(C)c1ccc(C(O)c2cc3ccccc3s2)cc1 (centres undefined)	inactive: -22%
CC(=O)C1=C(O)C(=O)N(c2ccc(C(=O)O)cc2)C1c1ccccc1 (centres undefined)	inconclusive: -45%
Cc1ccccc1C(=O)c1cccn1CC(=O)NCCCN1CCCCC1	inactive: -21.4%
Cc1ccc2c(C)c(C(=O)NCC3CCOCC3)oc2c1C	inactive: 26.5%
O=C(Nc1ncccn1)C1c2ccccc2Oc2ccccc21	inactive: -17.7%

Structure (SMILES)	max response, negative = inhibition
O=C(CNC1CCCCCC1)Nc1ccccc1N1CCCCC1	active: -63.7%
CCOC(=O)Cc1csc(NS(=O)(=O)c2ccc3c4c(cccc24)C(=O)N3CC)n1	active: -65.9%
Cc1ccccc1NC(=O)/C=C/c1ccc([N+](=O)[O-])s1	active: -50.7%
CCC(C)[C@H]1CN=C(N)N1CCc1cccc2ccccc12 (some centres undefined)	inactive: -11.7%
Clc1ccc2c(SCC3CO3)c3ccccc3nc2c1 (centres undefined)	active: -91%
O=[N+]([O-])c1ccc(Nc2ccc3ccccc3c2)nc1	active: -107%
CCOc1nc(SC(C(C)=O)C(=O)Nc2ccccc2)nc(N(C)C)n1 (centres undefined)	inconclusive: -39.7%
COc1ccc(-c2cc(C)no2)cc1S(=O)(=O)NCc1cccc(C)c1	inconclusive: -48.2%
O=C1CC(c2ccc(OCCCCCOc3ccc(C4CC(=O)NC4=O)cc3)cc2)C(=O)N1 (centres undefined)	inactive: 55.1%
CCN(CC(=O)Nc1ccc(NC(C)=O)cc1)C(=O)c1ccccc1SCC(=O)N1CCCC1	inconclusive: -30.6%
Nc1ccc(-c2ccc(N)c([N+](=O)[O-])c2)cc1[N+](=O)[O-]	inconclusive: -41.5%
CC(C)CCOc1cccc(OCC(=O)Nc2ccncc2)c1	inconclusive: -32.9%
CS(=O)(=O)c1ccccc1C(=O)Nc1ccccc1Cc1ccccc1	inconclusive: -34.6%
O=C1C(Cc2ccccc2)Nc2ncnc(N3CCN(c4ccccc4)CC3)c2N1Cc1ccc(Br)cc1 (centres undefined)	active: -127% and active: -151%
O=C(O)Cn1c(O)c(C2=c3ccccc3=NC2=O)sc1=O	inconclusive: -45.7%
Clc1ccc(SCCOCCN2CCOCC2)cc1	inconclusive: -31.8%
COc1ccc(Cl)cc1NC(=O)NNC(=O)C(=O)Nc1ccc(F)cc1	inconclusive: -31.7%
COc1ccccc1-c1cn[nH]c1-c1ccc(OCc2ccc(F)cc2)cc1O	inactive: 13.6%
O=C(C[n+]1ccc(-c2ccccc2)cc1)Nc1ccc([N+](=O)[O-])cc1	inconclusive: -33.3%
Oc1c(Cl)cc(Cl)cc1/C=N/c1ncn[nH]1	inconclusive: -33.2%
O=C(O)C/C(=C\c1cc2c(cc1Br)OCO2)c1nc2ccccc2s1	inconclusive: -38.9%
O=C(CCl)Nc1ccc(N2CCCCCC2)cc1	inconclusive: -31.2%
O=C(c1ccccc1)N1CCN(c2ccccc2)CC1	inactive: -9.41%

An excerpt of these results, with bars between the fields:
Structure (SMILES) | max response, negative = inhibition
O=c1c(-c2ccccc2)[n+]([O-])c2ccccc2n1O | inconclusive: -39.2%
COc1ccc(C)cc1NC(=O)c1nnn(Cc2cccc(C(F)(F)F)c2)c1N | inactive: -26.6%
CCn1c(=O)c([N+](=O)[O-])c(NCCN(C)C)c2ccccc21 | active: -58.5%
CCOC(=O)C(/C=C(\C#N)C(=O)OCC)=C(/N)N1CCN(c2ccc(Cl)cc2)CC1 | inconclusive: -42.2%

(cont.)

Structure (SMILES)	max response, negative = inhibition
c1ccc(CC2CCN(C3=Nc4cccc5cccc3c45)CC2)cc1	inconclusive: -38.8%
CCCCCC(C(=O)O)C(C)CC(=O)NC1CCCCC1 (centres undefined)	inconclusive: -34.5%
Cc1ccc(S(=O)(=O)NCCC(=O)NC2CCN(Cc3ccccc3)CC2)cc1	inconclusive: -30.1%
CSc1ccc(OC2(C)CCN(Cc3ccc(C(C)C)cc3)C2)cc1 (centres undefined)	active: -61.4%
CN(c1ccc(C(=O)N2CCN(Cc3ccccc3)CC2)cc1)S(=O)(=O)c1ccc(Cl)cc1	inconclusive: -30.8%
Cc1ccc([C@@H]2C[C@H]3[C@@H](CN2S(=O)(=O)c2ccc(C)cc2)C(=O)C[C@@H](c2ccccc2F)N3S(=O)(=O)c2ccc(C)cc2)cc1	inactive: 13.6%
O=C1C(Cl)=C(N2CCC(C(=O)O)CC2)C(=O)c2ccccc21	active: -53.3%
COc1ccccc1NS(=O)(=O)c1ccc(-c2cnc(C3CC3)o2)cc1	inconclusive: -36.1%
CC(CN1CCC(n2nccc2NC(=O)CCCc2ccccc2)CC1)c1ccccc1 (centres undefined)	inconclusive: -42.6%
COCCNC(=O)c1c(C)cc(C)cc1C	active: -76.9%
Cn1c(-c2c(N)n(CCCc3ccccc3)c3nc4ccccc4nc23)nc2ccccc21	inactive: 14.3%
O=C(CCN1CCc2ccccc2C1)Nc1ccc(F)cc1	active: -66.2%
COc1ccc(NC(=O)C(c2ccc(C#N)cc2)n2c(=O)c(-c3ccco3)nc3ccccc32)cc1 (centres undefined)	inconclusive: -33%
O=S(=O)(Cc1cnc(Cl)s1)c1ccccc1	inconclusive: -37.6%
CCN(C(=O)Cn1nc(C)n2c(cc3cc(C)ccc32)c1=O)c1ccccc1	inactive: -1.39%
CCc1ccc(/C=N/NC(=O)c2cc(C3CC3)nc3ccccc23)s1	inconclusive: -30.4%
CCOc1cc(CNCCc2ccc(S(N)(=O)=O)cc2)ccc1OCc1ccccc1	inconclusive: -44%
CC(=O)Nc1ccc(N2CCCCC2)c(C(=O)Nc2cccc(C)c2)c1	inconclusive: -35.6%
CCN(Cc1ccccc1)C(c1ccccn1)c1nnnn1C1CCCCC1 (centres undefined)	inactive: -8.85%
CC(=O)NC(CC(=O)Nc1ccc(S(=O)(=O)N2CCCCC2)cc1)c1ccccc1 (centres undefined)	inconclusive: -37.6%
